Data published in publication PMC5327575.
These are yes or no findings as the source states them, for the method shown. In cells and extracts the contact can be indirect. Some entries that bind do so weakly or less than the wild type.

Sequences of proteins named here, by UniProt entry; tags and fusion partners are left off. Residues count along the entry.
UniProt P35222: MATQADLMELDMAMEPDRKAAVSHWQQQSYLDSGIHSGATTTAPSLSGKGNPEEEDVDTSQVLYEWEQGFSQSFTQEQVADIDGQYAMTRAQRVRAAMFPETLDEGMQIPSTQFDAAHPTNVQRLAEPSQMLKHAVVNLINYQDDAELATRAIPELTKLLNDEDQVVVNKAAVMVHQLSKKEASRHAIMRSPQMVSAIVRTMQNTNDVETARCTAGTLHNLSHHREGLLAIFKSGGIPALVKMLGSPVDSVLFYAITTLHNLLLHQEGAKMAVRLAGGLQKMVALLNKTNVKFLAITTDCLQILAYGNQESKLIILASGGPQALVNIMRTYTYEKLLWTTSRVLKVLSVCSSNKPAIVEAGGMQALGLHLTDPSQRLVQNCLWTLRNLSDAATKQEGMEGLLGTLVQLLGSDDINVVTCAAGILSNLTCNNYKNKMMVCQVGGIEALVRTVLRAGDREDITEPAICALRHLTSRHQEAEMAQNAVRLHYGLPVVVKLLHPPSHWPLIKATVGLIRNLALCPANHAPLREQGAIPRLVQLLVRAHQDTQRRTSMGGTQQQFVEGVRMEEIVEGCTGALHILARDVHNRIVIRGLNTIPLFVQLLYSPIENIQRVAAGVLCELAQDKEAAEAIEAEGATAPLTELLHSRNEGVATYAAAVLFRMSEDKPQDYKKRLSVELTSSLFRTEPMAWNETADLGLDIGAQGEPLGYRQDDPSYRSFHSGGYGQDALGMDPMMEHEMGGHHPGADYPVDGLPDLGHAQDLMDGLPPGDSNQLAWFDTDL
UniProt P46531, residues 1754-2555: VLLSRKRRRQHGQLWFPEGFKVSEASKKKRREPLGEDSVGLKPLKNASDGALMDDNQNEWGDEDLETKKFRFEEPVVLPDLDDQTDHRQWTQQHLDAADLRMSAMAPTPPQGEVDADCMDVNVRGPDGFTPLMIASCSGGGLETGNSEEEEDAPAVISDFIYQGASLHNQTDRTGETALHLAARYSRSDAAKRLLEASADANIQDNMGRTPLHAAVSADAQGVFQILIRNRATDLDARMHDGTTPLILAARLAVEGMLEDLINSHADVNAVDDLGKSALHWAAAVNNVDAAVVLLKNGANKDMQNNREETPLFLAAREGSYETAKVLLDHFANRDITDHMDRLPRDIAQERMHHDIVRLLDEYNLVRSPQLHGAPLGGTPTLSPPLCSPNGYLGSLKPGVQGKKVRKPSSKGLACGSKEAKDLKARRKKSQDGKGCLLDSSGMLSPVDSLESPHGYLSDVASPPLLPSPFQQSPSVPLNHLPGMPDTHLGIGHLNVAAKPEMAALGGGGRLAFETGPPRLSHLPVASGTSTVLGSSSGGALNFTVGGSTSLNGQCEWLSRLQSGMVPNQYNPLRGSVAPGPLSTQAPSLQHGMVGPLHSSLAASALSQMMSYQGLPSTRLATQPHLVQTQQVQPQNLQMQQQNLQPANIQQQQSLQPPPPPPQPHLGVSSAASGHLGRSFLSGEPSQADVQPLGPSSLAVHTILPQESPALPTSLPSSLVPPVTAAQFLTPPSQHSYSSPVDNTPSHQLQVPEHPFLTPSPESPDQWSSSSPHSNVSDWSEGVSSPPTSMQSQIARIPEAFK

Key:
[1] = molecular target: β-catenin (human (endogenous in GC cell lines)) (UniProt P35222); test: co-IP; GC cells lysed in RIPA at 4 °C; 300 μg protein incubated overnight at 4 °C with β-catenin and NICD antibodies; protein A/G Sepharose beads; Western blot
[2] = molecular target: β-catenin (human (endogenous in GC cell lines)) (UniProt P35222); test: co-IP; as a1, but GC cells (in vitro) and tumours (in vivo) treated with luteolin

binding [1]: binds
Substance: Notch intracellular domain (NICD) of Notch1 (from UniProt P46531 1754-2555) (domain or fragment)
binding [2]: no binding (condition: with luteolin treatment)
